Laboratory results published in patent publication US9517222B2, “Method for the treatment of senile dementia of the Alzheimer's type” (Phenomenome Discoveries Inc., priority 2007, dated 2016).

Tests used:
[1] = Serum ethanolamine phospholipid levels in human cohorts (dementia severity, post-mortem pathology, age) by flow-injection MS/MS
[2] = Serum ethanolamine phospholipid ratios to PtdEt 16:0/18:0 (M01) in human cohorts
[3] = serum, females, post mortem SDAT
[4] = serum, females, post mortem control

CC/C=C\C/C=C\C/C=C\C/C=C\C/C=C\C/C=C\CCC(=O)OC(COCCCCCCCCCCCCCCCCCC)COP(=O)(O)OCCN (centres unmarked) [Metabolite M14, Plasmanyl 18:0/22:6]
Ratio of serum levels ([1]; AD, All to CN, Male): 0.704 | Ratio of serum levels ([1]; ADAS 5-19 to CN, Male): 0.800 | Ratio of serum levels ([1]; ADAS 20-39 to 5-19, Male): 0.832 | Ratio of serum levels ([1]; ADAS 20-39 to CN, Male): 0.666 | Ratio of serum levels ([1]; ADAS 40-70 to 5-19, Male): 0.691 | Ratio of serum levels ([1]; ADAS 40-70 to 20-39, Male): 0.830 | Ratio of serum levels ([1]; ADAS 40-70 to CN, Male): 0.553 | Serum level, Mean ([1]; Cognitive Normal, Female): 0.046 | Average serum level, Mean ([1]; Cognitive Normal, Male): 0.051 | Serum level, Mean ([1]; Post Mortem Ctl, Male): 0.025 | Serum level, Mean ([1]; Post Mortem SDAT Male): 0.021 | Ratio of serum levels ([1]; Post mortem SDAT vs Control, Male): 0.429 | Serum level, Mean ([1]; SDAT, ADAS 5-19, Female): 0.040 | Average serum level, Mean ([1]; SDAT, ADAS 5-19, Male): 0.041 | Serum level, Mean ([1]; SDAT, ADAS 20-39, Female): 0.034 | Average serum level, Mean ([1]; SDAT, ADAS 20-39, Male): 0.034 | Serum level, Mean ([1]; SDAT, ADAS 40-70, Female): 0.033 | Average serum level, Mean ([1]; SDAT, ADAS 40-70, Male): 0.028 | Serum level, Mean ([1]; SDAT_all, Female): 0.035 | Average serum level, Mean ([1]; SDAT_all, Male): 0.036 | Ratio, ADAS 5-19 to CN, Female ([1]; serum level ratio, females, ADAS 5-19 vs CN): 0.869 | Ratio, ADAS 20-39 to 5-19, Female ([1]; serum level ratio, females, ADAS 20-39 vs ADAS 5-19): 0.858 | Ratio, ADAS 20-39 to CN, Female ([1]; serum level ratio, females, ADAS 20-39 vs CN): 0.746 | Ratio, ADAS 40-70 to 5-19, Female ([1]; serum level ratio, females, ADAS 40-70 vs ADAS 5-19): 0.833 | Ratio, ADAS 40-70 to 20-39, Female ([1]; serum level ratio, females, ADAS 40-70 vs ADAS 20-39): 0.971 | Ratio, ADAS 40-70 to CN, Female ([1]; serum level ratio, females, ADAS 40-70 vs CN): 0.724 | Ratio, 50-59 vs. 40-49, Female ([1]; serum level ratio, females, age 50-59 vs 40-49): 0.981 | Ratio, 60-69 vs. 40-49, Female ([1]; serum level ratio, females, age 60-69 vs 40-49): 0.953 | Ratio, 70+ vs. 40-49, Female ([1]; serum level ratio, females, age 70+ vs 40-49): 1.149 | Ratio, AD, All to CN, Female ([1]; serum level ratio, females, all AD vs cognitively normal): 0.772 | Ratio, Autopsy AD vs. Control, Female ([1]; serum level ratio, females, autopsy AD vs control): 0.904 | Ratio, 50-59 vs. 40-49, Male ([1]; serum level ratio, males, age 50-59 vs 40-49): 1.383 | Ratio, 60-69 vs. 40-49, Male ([1]; serum level ratio, males, age 60-69 vs 40-49): 1.536 | Ratio, 70+ vs. 40-49, Male ([1]; serum level ratio, males, age 70+ vs 40-49): 1.802 | Mean serum level, Age Ctl, 30-39, Female ([1]; serum, females, age 30-39): 0.040 | Mean serum level, Age Ctl, 40-49, Female ([1]; serum, females, age 40-49): 0.043 | Mean serum level, Age Ctl, 50-59, Female ([1]; serum, females, age 50-59): 0.042 | Mean serum level, Age Ctl, 60-69, Female ([1]; serum, females, age 60-69): 0.041 | Mean serum level, Age Ctl, 70+, Female ([1]; serum, females, age 70+): 0.049 | Mean serum level, Post Mortem SDAT, Female [1, 3]: 0.011 | Mean serum level, Post Mortem Ctl, Female [1, 4]: 0.023 | Mean serum level, Age Ctl, 30-39, Male ([1]; serum, males, age 30-39): 0.034 | Mean serum level, Age Ctl, 40-49, Male ([1]; serum, males, age 40-49): 0.026 | Mean serum level, Age Ctl, 50-59, Male ([1]; serum, males, age 50-59): 0.036 | Mean serum level, Age Ctl, 60-69, Male ([1]; serum, males, age 60-69): 0.040 | Mean serum level, Age Ctl, 70+, Male ([1]; serum, males, age 70+): 0.047 | Ratio of ethanolamine phospholipid ratios to M01 between cohorts ([2]; AD, All to CN, Male): 0.701 | Ratio of ethanolamine phospholipid ratios to M01 between cohorts ([2]; ADAS 5-19 to CN, Male): 0.787 | Ratio of ethanolamine phospholipid ratios to M01 between cohorts ([2]; ADAS 20-39 to CN, Male): 0.680 | Ratio of ethanolamine phospholipid ratios to M01 between cohorts ([2]; ADAS 40-70 to CN, Male): 0.576 | Average serum ethanolamine phospholipid ratio to M01, Mean ([2]; Cognitive Normal, Male, serum): 0.442 | Average serum ethanolamine phospholipid ratio to M01, Mean ([2]; SDAT, ADAS 5-19, Male, serum): 0.348 | Average serum ethanolamine phospholipid ratio to M01, Mean ([2]; SDAT, ADAS 20-39, Male, serum): 0.301 | Average serum ethanolamine phospholipid ratio to M01, Mean ([2]; SDAT, ADAS 40-70, Male, serum): 0.255 | Average serum ethanolamine phospholipid ratio to M01, Mean ([2]; SDAT_all, Male, serum): 0.310 | Ethanolamine Phospholipid Ratio to M01, Mean, Age Ctl, 30-39, Female ([2]; human serum, females aged 30-39): 0.379 | Ethanolamine Phospholipid Ratio to M01, Mean, Age Ctl, 40-49, Female ([2]; human serum, females aged 40-49): 0.381 | Ethanolamine Phospholipid Ratio to M01, Mean, Age Ctl, 50-59, Female ([2]; human serum, females aged 50-59): 0.414 | Ratio of Ethanolamine Phospholipid Ratio to M01, 50-59 vs. 40-49, Female ([2]; human serum, females aged 50-59 vs. females aged 40-49): 1.088 | Ethanolamine Phospholipid Ratio to M01, Mean, Age Ctl, 60-69, Female ([2]; human serum, females aged 60-69): 0.333 | Ratio of Ethanolamine Phospholipid Ratio to M01, 60-69 vs. 40-49, Female ([2]; human serum, females aged 60-69 vs. females aged 40-49): 0.876 | Ethanolamine Phospholipid Ratio to M01, Mean, Age Ctl, 70+_Female ([2]; human serum, females aged 70+): 0.412 | Ratio of Ethanolamine Phospholipid Ratio to M01, 70+ vs. 40-49, Female ([2]; human serum, females aged 70+ vs. females aged 40-49): 1.083 | Ratio of Ethanolamine Phospholipid Ratio to M01, 50-59 vs. 40-49, Male ([2]; human serum, males aged 50-59 vs. males aged 40-49): 1.372 | Ratio of Ethanolamine Phospholipid Ratio to M01, 60-69 vs. 40-49, Male ([2]; human serum, males aged 60-69 vs. males aged 40-49): 1.306 | Ratio of Ethanolamine Phospholipid Ratio to M01, 70+ vs. 40-49, Male ([2]; human serum, males aged 70+ vs. males aged 40-49): 1.500 | Ratio of ethanolamine phospholipid ratio to M01, ADAS 5-19 to CN, Female ([2]; serum, females, ADAS 5-19 vs cognitive normal): 0.935 | Ratio of ethanolamine phospholipid ratio to M01, ADAS 20-39 to 5-19, Female ([2]; serum, females, ADAS 20-39 vs ADAS 5-19): 0.844 | Ratio of ethanolamine phospholipid ratio to M01, ADAS 20-39 to CN, Female ([2]; serum, females, ADAS 20-39 vs cognitive normal): 0.789 | Ratio of ethanolamine phospholipid ratio to M01, ADAS 40-70 to 5-19, Female ([2]; serum, females, ADAS 40-70 vs ADAS 5-19): 0.761 | Ratio of ethanolamine phospholipid ratio to M01, ADAS 40-70 to 20-39, Female ([2]; serum, females, ADAS 40-70 vs ADAS 20-39): 0.902 | Ratio of ethanolamine phospholipid ratio to M01, ADAS 40-70 to CN, Female ([2]; serum, females, ADAS 40-70 vs cognitive normal): 0.711 | Ethanolamine phospholipid ratio to M01, Mean, SDAT, ADAS 5-19, Female ([2]; serum, females, SDAT ADAS 5-19): 0.367 | Ethanolamine phospholipid ratio to M01, Mean, SDAT, ADAS 20-39, Female ([2]; serum, females, SDAT ADAS 20-39): 0.309 | Ethanolamine phospholipid ratio to M01, Mean, SDAT, ADAS 40-70, Female ([2]; serum, females, SDAT ADAS 40-70): 0.279 | Ratio of ethanolamine phospholipid ratio to M01, AD, All to CN, Female ([2]; serum, females, all AD vs cognitive normal): 0.802 | Ethanolamine phospholipid ratio to M01, Mean, SDAT_all Female ([2]; serum, females, all SDAT): 0.315 | Ratio of ethanolamine phospholipid ratio to M01, Autopsy AD vs. Control, Female ([2]; serum, females, autopsy AD vs post mortem control): 1.071 | Ethanolamine phospholipid ratio to M01, Mean, Cognitive Normal, Female ([2]; serum, females, cognitive normal): 0.392 | Ethanolamine phospholipid ratio to M01, Mean, Post Mortem SDAT Female [2, 3]: 0.155 | Ethanolamine phospholipid ratio to M01, Mean, Post Mortem Ctl, Female [2, 4]: 0.144 | Ratio of ethanolamine phospholipid ratio to M01, ADAS 20-39 to 5-19, Male ([2]; serum, males, SDAT ADAS 20-39 vs ADAS 5-19): 0.864 | Ratio of ethanolamine phospholipid ratio to M01, ADAS 40-70 to 5-19, Male ([2]; serum, males, SDAT ADAS 40-70 vs ADAS 5-19): 0.732 | Ratio of ethanolamine phospholipid ratio to M01, ADAS 40-70 to 20-39, Male ([2]; serum, males, SDAT ADAS 40-70 vs ADAS 20-39): 0.847 | Ethanolamine phospholipid ratio to M01, Mean, Age Ctl, 30-39, Male ([2]; serum, males, age control 30-39): 0.294 | Ethanolamine phospholipid ratio to M01, Mean, Age Ctl, 40-49, Male ([2]; serum, males, age control 40-49): 0.242 | Ethanolamine phospholipid ratio to M01, Mean, Age Ctl, 50-59, Male ([2]; serum, males, age control 50-59): 0.332 | Ethanolamine phospholipid ratio to M01, Mean, Age Ctl, 60-69, Male ([2]; serum, males, age control 60-69): 0.316 | Ethanolamine phospholipid ratio to M01, Mean, Age Ctl, 70+_Male ([2]; serum, males, age control 70+): 0.363 | Ethanolamine phospholipid ratio to M01, Mean, Post Mortem SDAT Male ([2]; serum, males, post mortem SDAT): 0.115 | Ratio of ethanolamine phospholipid ratio to M01, SDAT vs Control (post mortem, males) ([2]; serum, males, post mortem SDAT vs post mortem control): 0.542 | Ethanolamine phospholipid ratio to M01, Mean, Post Mortem Ctl, Male ([2]; serum, males, post mortem control): 0.212

Some values come without a unit; they compare only within their column.
